This continues a long series; more values of the same kind are listed elsewhere.
Experiments:
[1] = test system: Bacteria mixture 2 (alkaliphilic bacteria of the Nesterenkonia & Alkalibacterium genus); test: Repetitive stress test of paints with bacteria mixture 2, semiquantitative evaluation (examples 4 and 5); assay type: cell-based; parameters: key: 0: No growth; Minimal growth, 1 to 10 colonies visible over the entire streak; 2: Light growth, maximum 100 colonies; Moderate growth, maximum 300 to 400 colonies; Uniform growth, >400 colonies, single colonies still clearly recognizable; 5: Heavy growth, too many colonies to count, but no growth over the entire streak; 6: Full growth, barely any single colonies still apparent, growth over the entire streak; conditions: Table 5, Paint 3, pH 11.2
Text: Paints 1 to 3 were mixed and homogenized with various concentrations of the guanidinium salts to be tested.
The batches obtained of the paint thus prepared were inoculated repeatedly with a mixture of different wild-type bacterial strains that are of practical relevance with regard to contamination. These bacteria had previously been isolated from commercial emulsion paints containing conventional preservatives (bacteria mixture 1, Pseudomonas genus), which are microbially contaminated in practice, and commercial so-called preservative-free alkaline emulsion paints (bacteria mixture 2, alkaliphilic bacteria of the Nesterenkonia & Alkalibacterium genus), which are microbially contaminated in practice.
• Nesterenkonia sp. DSM 108520 • Nesterenkonia sp. DSM 108521 • Alkalibacterium pelagium DSM 108522 • Nesterenkonia massiliensis DSM 110679 • Nesterenkonia sp. DSM 108519
(§1) The inoculum was added to the respective sample in each inoculation at 2% (v/w) as a fresh cell suspension in a physiological saline solution (0.9% NaCl). The cell count of the added inoculum in example 1 was 10^5/ml, in examples 2 to 5 10^9/ml, and in example 6 10^6/ml, each in equal portions consisting of the individual bacterial strains. The cell suspension was produced by growing the individual bacteria at 30° C. for 24 h in liquid culture on a shaker. The medium used to grow the bacteria from bacteria mixture 1 was Müller-Hinton liquid medium. Bacteria from bacteria mixture 2 were grown in Müller-Hinton liquid medium that had been adjusted to pH 9.5-9.7 with an alkaline buffer solution beforehand. After growing, the individual liquid cultures were centrifuged, and the cells were resuspended in physiological saline solution. In order to adjust the mixture to the desired cell count, the individual bacteria suspensions, if necessary, were diluted accordingly before being combined with saline solution. The cell count of the inoculum was determined in each case by chamber counting.
(§2) In examples 2 to 6, what is called a repetitive stress test with bacteria was conducted by inoculating the samples at particular time intervals repeatedly with a bacteria suspension having a cell count of 10^9/ml (2% v/w) and monitoring the evolution of the bacteria by a semiquantitative evaluation method. After each inoculation, the samples were incubated at 30° C. for 6 days (bacteria mixture 1 and 3) or 7 and 14 days (bacteria mixture 2), and after these periods bacterial infestation was evaluated semiquantitatively in each case. For this purpose, an aliquot was taken from each sample after homogenization using a sterile plastic inoculation loop (10 μl) and streaked evenly on agar plates (bacteria mixture 1 and 3 on tryptic soy agar, bacteria mixture 2 on DSMZ 31 alkaline nutrient agar). The streaked agar plates were then incubated at 30° C. for 48 h (bacteria mixture 1 and 3) or 5 to 7 days (bacteria mixture 2). After incubation, the bacterial colonies grown on the agar plates were visually evaluated and quantified according to the following scheme:
(§3) A total of 3 inoculation cycles was performed in each repetitive stress test.
Inoculation 2% (w/v) with Bacteria Mixture 2, 10^9 CFU/ml

Bacteria mixture 3 = test: Repetitive stress test of calcium carbonate slurry with bacteria mixture 3, semiquantitative evaluation (example 6); assay type: cell-based; parameters: key: 0: No growth; Minimal growth, 1 to 10 colonies visible over the entire streak; 2: Light growth, maximum 100 colonies; Moderate growth, maximum 300 to 400 colonies; Uniform growth, >400 colonies, single colonies still clearly recognizable; 5: Heavy growth, too many colonies to count, but no growth over the entire streak; 6: Full growth, barely any single colonies still apparent, growth over the entire streak; conditions: 6 d
Experimental: The calcium carbonate slurry was stored at 60° C. for 3 days prior to addition of the guanidinium salts for heat sterilization. The slurry thus treated was then admixed and homogenized with different concentrations of guanidine salts. The slurry prepared in this way was inoculated repeatedly with bacteria strains of practical relevance (bacteria mixture 3).
• Alcaligenes faecalis NCIMB 13145 • Aeromonas hydrophila DSM 6173 • Escherichia coli DSM 13631 • Burkholderia cepacia DSM 9241 • Staphylococcus aureus DSM 799 • Pseudomonas aeruginosa DSM 50071 • Pseudomonas putida DSM 13624
as §1, §2, §3
Inoculation 2% (w/v) with Bacteria Mixture 3, 10^6 CFU/ml

N=C(N)N.N=C(N)N.O=C(O)O [guanidine carbonate]
Bacterial growth after inoculation ([1]; +0.1% guanidine carbonate (656 ppm guanidine), 1. inoculation, 7 d): 3 (Moderate growth, maximum 300 to 400 colonies) | Bacterial growth after inoculation ([1]; +0.1% guanidine carbonate (656 ppm guanidine), 1. inoculation, 14 d): 0 | Bacterial growth after inoculation ([1]; +0.1% guanidine carbonate (656 ppm guanidine), 2. inoculation, 7 d): 3 (Moderate growth, maximum 300 to 400 colonies) | Bacterial growth after inoculation ([1]; +0.1% guanidine carbonate (656 ppm guanidine), 2. inoculation, 14 d): 0 | Bacterial growth after inoculation ([1]; +0.1% guanidine carbonate (656 ppm guanidine), 3. inoculation, 7 d): 5 | Bacterial growth after inoculation ([1]; +0.1% guanidine carbonate (656 ppm guanidine), 3. inoculation, 14 d): 0 | Bacterial growth after inoculation ([1]; +0.15% guanidine carbonate (984 ppm guanidine), 3. inoculation, 7 d): 4 (Uniform growth, >400 colonies, single colonies still clearly recognizable) | Bacterial growth after inoculation ([1]; +0.15% guanidine carbonate (984 ppm guanidine), 3. inoculation, 14 d): 0 | Bacterial growth after inoculation ([1]; +0.2% guanidine carbonate (1312 ppm guanidine), 1. inoculation, 7 d): 3 (Moderate growth, maximum 300 to 400 colonies) | Bacterial growth after inoculation ([1]; +0.2% guanidine carbonate (1312 ppm guanidine), 1. inoculation, 14 d): 0 | Bacterial growth after inoculation ([1]; +0.2% guanidine carbonate (1312 ppm guanidine), 2. inoculation, 7 d): 3 (Moderate growth, maximum 300 to 400 colonies) | Bacterial growth after inoculation ([1]; +0.2% guanidine carbonate (1312 ppm guanidine), 2. inoculation, 14 d): 0 | Bacterial growth after inoculation ([1]; +0.2% guanidine carbonate (1312 ppm guanidine), 3. inoculation, 7 d): 3 (Moderate growth, maximum 300 to 400 colonies) | Bacterial growth after inoculation ([1]; +0.2% guanidine carbonate (1312 ppm guanidine), 3. inoculation, 14 d): 0 | Bacterial growth after inoculation ([1]; +0.25% guanidine carbonate (1640 ppm guanidine), 1. inoculation, 7 d): 0/0 | Bacterial growth after inoculation ([1]; +0.25% guanidine carbonate (1640 ppm guanidine), 1. inoculation, 14 d): 0/0 | Bacterial growth after inoculation ([1]; +0.25% guanidine carbonate (1640 ppm guanidine), 2. inoculation, 7 d): 1 (Minimal growth, 1 to 10 colonies visible over the entire streak) | Bacterial growth after inoculation ([1]; +0.25% guanidine carbonate (1640 ppm guanidine), 2. inoculation, 14 d): 0 | Bacterial growth after inoculation ([1]; +0.25% guanidine carbonate (1640 ppm guanidine), 3. inoculation, 7 d): 3 (Moderate growth, maximum 300 to 400 colonies) | Bacterial growth after inoculation ([1]; +0.25% guanidine carbonate (1640 ppm guanidine), 3. inoculation, 14 d): 0 | Bacterial growth after inoculation ([1]; +0.3% guanidine carbonate (1968 ppm guanidine), 1. inoculation, 7 d): 0/0 | Bacterial growth after inoculation ([1]; +0.3% guanidine carbonate (1968 ppm guanidine), 1. inoculation, 14 d): 0/0 | Bacterial growth after inoculation ([1]; +0.3% guanidine carbonate (1968 ppm guanidine), 2. inoculation, 7 d): 1 (Minimal growth, 1 to 10 colonies visible over the entire streak) | Bacterial growth after inoculation ([1]; +0.3% guanidine carbonate (1968 ppm guanidine), 2. inoculation, 14 d): 0 | Bacterial growth after inoculation ([1]; +0.3% guanidine carbonate (1968 ppm guanidine), 3. inoculation, 7 d): 3 (Moderate growth, maximum 300 to 400 colonies) | Bacterial growth after inoculation ([1]; +0.3% guanidine carbonate (1968 ppm guanidine), 3. inoculation, 14 d): 0 | Bacterial growth after inoculation ([1]; +0.4% guanidine carbonate (2624 ppm guanidine), 1. inoculation, 7 d): 0/0 | Bacterial growth after inoculation ([1]; +0.4% guanidine carbonate (2624 ppm guanidine), 1. inoculation, 14 d): 0/0 | Bacterial growth after inoculation ([1]; +0.4% guanidine carbonate (2624 ppm guanidine), 2. inoculation, 7 d): 1 (Minimal growth, 1 to 10 colonies visible over the entire streak) | Bacterial growth after inoculation ([1]; +0.4% guanidine carbonate (2624 ppm guanidine), 2. inoculation, 14 d): 0 | Bacterial growth after inoculation ([1]; +0.4% guanidine carbonate (2624 ppm guanidine), 3. inoculation, 7 d): 2 (Light growth, maximum 100 colonies) | Bacterial growth after inoculation ([1]; +0.4% guanidine carbonate (2624 ppm guanidine), 3. inoculation, 14 d): 0 | Bacterial growth after inoculation ([1]; +0.5% guanidine carbonate (3280 ppm guanidine), 1. inoculation, 7 d): 0/0 | Bacterial growth after inoculation ([1]; +0.5% guanidine carbonate (3280 ppm guanidine), 1. inoculation, 14 d): 0/0 | Bacterial growth after inoculation ([1]; +0.5% guanidine carbonate (3280 ppm guanidine), 2. inoculation, 7 d): 0/0 | Bacterial growth after inoculation ([1]; +0.5% guanidine carbonate (3280 ppm guanidine), 2. inoculation, 14 d): 0/0 | Bacterial growth after inoculation ([1]; +0.5% guanidine carbonate (3280 ppm guanidine), 3. inoculation, 7 d): 1 (Minimal growth, 1 to 10 colonies visible over the entire streak) | Bacterial growth after inoculation ([1]; +0.5% guanidine carbonate (3280 ppm guanidine), 3. inoculation, 14 d): 0 | Bacterial growth after inoculation ([1]; +0.6% guanidine carbonate (3936 ppm guanidine), 1. inoculation, 7 d): 0/0 | Bacterial growth after inoculation ([1]; +0.6% guanidine carbonate (3936 ppm guanidine), 1. inoculation, 14 d): 0/0 | Bacterial growth after inoculation ([1]; +0.6% guanidine carbonate (3936 ppm guanidine), 2. inoculation, 7 d): 0/0 | Bacterial growth after inoculation ([1]; +0.6% guanidine carbonate (3936 ppm guanidine), 2. inoculation, 14 d): 0/0 | Bacterial growth after inoculation ([1]; +0.6% guanidine carbonate (3936 ppm guanidine), 3. inoculation, 7 d): 2 (Light growth, maximum 100 colonies) | Bacterial growth after inoculation ([1]; +0.6% guanidine carbonate (3936 ppm guanidine), 3. inoculation, 14 d): 0 | Bacterial growth after inoculation ([1]; +0.7% guanidine carbonate (4592 ppm guanidine), 1. inoculation, 7 d): 0/0 | Bacterial growth after inoculation ([1]; +0.7% guanidine carbonate (4592 ppm guanidine), 1. inoculation, 14 d): 0/0 | Bacterial growth after inoculation ([1]; +0.7% guanidine carbonate (4592 ppm guanidine), 2. inoculation, 7 d): 0/0 | Bacterial growth after inoculation ([1]; +0.7% guanidine carbonate (4592 ppm guanidine), 2. inoculation, 14 d): 0/0 | Bacterial growth after inoculation ([1]; +0.7% guanidine carbonate (4592 ppm guanidine), 3. inoculation, 7 d): 0/0 | Bacterial growth after inoculation ([1]; +0.7% guanidine carbonate (4592 ppm guanidine), 3. inoculation, 14 d): 0/0 | Bacterial growth after inoculation ([1]; +0.8% guanidine carbonate (5248 ppm guanidine), 1. inoculation, 7 d): 0/0 | Bacterial growth after inoculation ([1]; +0.8% guanidine carbonate (5248 ppm guanidine), 1. inoculation, 14 d): 0/0 | Bacterial growth after inoculation ([1]; +0.8% guanidine carbonate (5248 ppm guanidine), 2. inoculation, 7 d): 0/0 | Bacterial growth after inoculation ([1]; +0.8% guanidine carbonate (5248 ppm guanidine), 2. inoculation, 14 d): 0/0 | Bacterial growth after inoculation ([1]; +0.8% guanidine carbonate (5248 ppm guanidine), 3. inoculation, 7 d): 0/0 | Bacterial growth after inoculation ([1]; +0.8% guanidine carbonate (5248 ppm guanidine), 3. inoculation, 14 d): 0/0 | Bacterial growth after inoculation ([1]; +1.0% guanidine carbonate (6560 ppm guanidine), 1. inoculation, 7 d): 0/0 | Bacterial growth after inoculation ([1]; +1.0% guanidine carbonate (6560 ppm guanidine), 1. inoculation, 14 d): 0/0 | Bacterial growth after inoculation ([1]; +1.0% guanidine carbonate (6560 ppm guanidine), 2. inoculation, 7 d): 0/0 | Bacterial growth after inoculation ([1]; +1.0% guanidine carbonate (6560 ppm guanidine), 2. inoculation, 14 d): 0/0 | Bacterial growth after inoculation ([1]; +1.0% guanidine carbonate (6560 ppm guanidine), 3. inoculation, 7 d): 0/0 | Bacterial growth after inoculation ([1]; +1.0% guanidine carbonate (6560 ppm guanidine), 3. inoculation, 14 d): 0/0 | Bacterial growth after inoculation (Bacteria mixture 3; Table 6, +0.025% guanidine carbonate (164 ppm guanidine), pH 9.3, 1. inoculation): 6 | Bacterial growth after inoculation (Bacteria mixture 3; Table 6, +0.025% guanidine carbonate (164 ppm guanidine), pH 9.3, 2. inoculation): 6 | Bacterial growth after inoculation (Bacteria mixture 3; Table 6, +0.025% guanidine carbonate (164 ppm guanidine), pH 9.3, 3. inoculation): 6 | Bacterial growth after inoculation (Bacteria mixture 3; Table 6, +0.05% guanidine carbonate (328 ppm guanidine), pH 9.4, 1. inoculation): 3 (Moderate growth, maximum 300 to 400 colonies) | Bacterial growth after inoculation (Bacteria mixture 3; Table 6, +0.05% guanidine carbonate (328 ppm guanidine), pH 9.4, 2. inoculation): 5 | Bacterial growth after inoculation (Bacteria mixture 3; Table 6, +0.05% guanidine carbonate (328 ppm guanidine), pH 9.4, 3. inoculation): 6 | Bacterial growth after inoculation (Bacteria mixture 3; Table 6, +0.075% guanidine carbonate (492 ppm guanidine), pH 9.4, 1. inoculation): 0 | Bacterial growth after inoculation (Bacteria mixture 3; Table 6, +0.075% guanidine carbonate (492 ppm guanidine), pH 9.4, 2. inoculation): 3 (Moderate growth, maximum 300 to 400 colonies) | Bacterial growth after inoculation (Bacteria mixture 3; Table 6, +0.075% guanidine carbonate (492 ppm guanidine), pH 9.4, 3. inoculation): 6 | Bacterial growth after inoculation (Bacteria mixture 3; Table 6, +0.1% guanidine carbonate (656 ppm guanidine), pH 9.5, 1. inoculation): 0 | Bacterial growth after inoculation (Bacteria mixture 3; Table 6, +0.1% guanidine carbonate (656 ppm guanidine), pH 9.5, 2. inoculation): 0 | Bacterial growth after inoculation (Bacteria mixture 3; Table 6, +0.1% guanidine carbonate (656 ppm guanidine), pH 9.5, 3. inoculation): 0
